Measured values taken from publication PMC10243807.

Amino acid sequences for entries named in this document (tags omitted).
UniProt Q9Y508: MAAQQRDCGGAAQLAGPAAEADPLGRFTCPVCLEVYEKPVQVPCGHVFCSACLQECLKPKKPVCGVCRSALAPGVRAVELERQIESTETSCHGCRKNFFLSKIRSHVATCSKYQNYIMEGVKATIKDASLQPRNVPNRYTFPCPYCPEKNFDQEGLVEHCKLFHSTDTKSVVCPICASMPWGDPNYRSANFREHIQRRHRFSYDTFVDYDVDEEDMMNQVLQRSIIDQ
UniProt Q9Y6M1: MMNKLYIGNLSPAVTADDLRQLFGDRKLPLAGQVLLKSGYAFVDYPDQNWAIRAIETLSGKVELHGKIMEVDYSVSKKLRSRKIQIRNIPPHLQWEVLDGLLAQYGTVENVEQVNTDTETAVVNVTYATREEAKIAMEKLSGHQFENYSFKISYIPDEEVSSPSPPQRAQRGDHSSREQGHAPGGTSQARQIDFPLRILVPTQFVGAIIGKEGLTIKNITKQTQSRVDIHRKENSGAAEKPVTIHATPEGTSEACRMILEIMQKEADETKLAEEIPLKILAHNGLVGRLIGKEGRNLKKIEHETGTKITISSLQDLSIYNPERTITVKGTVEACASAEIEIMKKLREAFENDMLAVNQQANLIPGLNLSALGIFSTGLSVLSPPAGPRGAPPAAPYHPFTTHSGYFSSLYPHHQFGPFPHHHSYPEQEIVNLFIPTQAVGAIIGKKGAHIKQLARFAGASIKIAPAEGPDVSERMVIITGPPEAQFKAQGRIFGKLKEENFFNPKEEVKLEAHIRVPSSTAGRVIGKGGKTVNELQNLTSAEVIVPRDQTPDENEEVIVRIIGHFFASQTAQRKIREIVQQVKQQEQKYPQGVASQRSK
UniProt O00425: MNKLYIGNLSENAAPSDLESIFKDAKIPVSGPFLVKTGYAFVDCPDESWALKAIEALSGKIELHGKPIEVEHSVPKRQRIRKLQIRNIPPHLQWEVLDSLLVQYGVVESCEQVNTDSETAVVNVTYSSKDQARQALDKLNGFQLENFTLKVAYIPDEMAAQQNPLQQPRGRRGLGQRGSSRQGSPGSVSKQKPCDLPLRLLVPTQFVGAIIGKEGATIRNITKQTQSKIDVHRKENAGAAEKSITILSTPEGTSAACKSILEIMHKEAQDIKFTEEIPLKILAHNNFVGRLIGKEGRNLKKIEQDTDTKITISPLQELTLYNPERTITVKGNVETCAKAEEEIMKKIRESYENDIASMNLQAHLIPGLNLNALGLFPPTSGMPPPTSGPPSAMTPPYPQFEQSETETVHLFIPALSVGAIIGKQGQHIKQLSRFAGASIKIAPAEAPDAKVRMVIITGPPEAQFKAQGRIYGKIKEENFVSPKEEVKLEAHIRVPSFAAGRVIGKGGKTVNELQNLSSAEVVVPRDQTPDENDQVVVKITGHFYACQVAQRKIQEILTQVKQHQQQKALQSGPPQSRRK
UniProt Q969F8: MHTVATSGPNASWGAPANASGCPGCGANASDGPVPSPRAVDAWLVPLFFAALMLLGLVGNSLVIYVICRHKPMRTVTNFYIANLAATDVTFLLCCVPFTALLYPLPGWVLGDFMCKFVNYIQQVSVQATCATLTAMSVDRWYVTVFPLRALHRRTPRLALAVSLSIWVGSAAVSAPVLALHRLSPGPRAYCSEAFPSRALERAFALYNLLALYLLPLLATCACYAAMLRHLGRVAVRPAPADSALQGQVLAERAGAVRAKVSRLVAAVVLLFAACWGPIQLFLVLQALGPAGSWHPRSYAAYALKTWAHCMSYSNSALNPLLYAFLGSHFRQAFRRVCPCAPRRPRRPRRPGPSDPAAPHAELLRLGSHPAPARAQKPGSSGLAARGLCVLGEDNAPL
UniProt P11940: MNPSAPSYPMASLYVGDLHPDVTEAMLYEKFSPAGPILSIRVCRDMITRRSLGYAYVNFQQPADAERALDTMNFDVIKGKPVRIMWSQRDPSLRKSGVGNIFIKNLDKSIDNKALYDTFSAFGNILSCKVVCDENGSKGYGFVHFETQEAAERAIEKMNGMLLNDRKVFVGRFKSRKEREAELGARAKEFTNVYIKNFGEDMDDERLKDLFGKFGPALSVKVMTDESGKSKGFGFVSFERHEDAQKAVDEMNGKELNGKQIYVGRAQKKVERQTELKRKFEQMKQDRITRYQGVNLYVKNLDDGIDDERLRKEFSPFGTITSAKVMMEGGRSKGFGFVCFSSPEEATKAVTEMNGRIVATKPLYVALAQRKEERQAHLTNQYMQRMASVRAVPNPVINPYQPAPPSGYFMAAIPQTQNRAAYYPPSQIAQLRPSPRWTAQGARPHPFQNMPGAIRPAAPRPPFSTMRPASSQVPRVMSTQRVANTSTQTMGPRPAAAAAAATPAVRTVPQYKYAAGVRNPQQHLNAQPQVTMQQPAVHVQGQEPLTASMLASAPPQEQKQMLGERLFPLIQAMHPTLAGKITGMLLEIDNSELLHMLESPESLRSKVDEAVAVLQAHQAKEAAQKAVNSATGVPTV

B1: WD repeat-containing protein 11, endogenous (protein, UniProt Q9BZH6 1-1224)
chain: MLPYTVNFKVSARTLTGALNAHNKAAVDWGWQGLIAYGCHSLVVVIDSITAQTLQVLEKHKADVVKVKWARENYHHNIGSPYCLRLASADVNGKIIVWDVAAGVAQCEIQEHAKPIQDVQWLWNQDASRDLLLAIHPPNYIVLWNADTGTKLWKKSYADNILSFSFDPFDPSHLTLLTSEGIVFISDFSPSKPPSGPGKKVYISSPHSSPAHNKLATATGAKKALNKVKILITQEKPSAEFITLNDCLQLAYLPSKRNHMLLLYPREILILDLEVNQTVGVIAIERTGVPFLQVIPCFQRDGLFCLHENGCITLRVRRSYNNIFTTSNEEPDPDPVQELTYDLRSQCDAIRVTKTVRPFSMVCCPVNENAAALVVSDGRVMIWELKSAVCNRNSRNSSSGVSPLYSPVSFCGIPVGVLQNKLPDLSLDNMIGQSAIAGEEHPRGSILREVHLKFLLTGLLSGLPAPQFAIRMCPPLTTKNIKMYQPLLAVGTSNGSVLVYHLTSGLLHKELSIHSCEVKGIEWTSLTSFLSFATSTPNNMGLVRNELQLVDLPTGRSIAFRGERGNDESAIEMIKVSHLKQYLAVVFRDKPLELWDVRTCTLLREMSKNFPTITALEWSPSHNLKSLRKKQLATREAMARQTVVSDTELSIVESSVISLLQEAESKSELSQNISAREHFVFTDIDGQVYHLTVEGNSVKDSARIPPDGSMGSITCIAWKGDTLVLGDMDGNLNFWDLKGRVSRGIPTHRSWVRKIRFAPGKGNQKLIAMYNDGAEVWDTKEVQMVSSLRSGRNVTFRILDVDWCTSDKVILASDDGCIRVLEMSMKSACFRMDEQELTEPVWCPYLLVPRASLALKAFLLHQPWNGQYSLDISHVDYPENEEIKNLLQEQLNSLSNDIKKLLLDPEFTLLQRCLLVSRLYGDESELHFWTVAAHYLHSLSQEKSASTTAPKEAAPRDKLSNPLDICYDVLCENAYFQKFQLERVNLQEVKRSTYDHTRKCTDQLLLLGQTDRAVQLLLETSADNQHYYCDSLKACLVTTVTSSGPSQSTIKLVATNMIANGKLAEGVQLLCLIDKAADACRYLQTYGEWNRAAWLAKVRLNPEECADVLRRWVDHLCSPQVNQKSKALLVLLSLGCFFSVAETLHSMRYFDRAALFVEACLKYGAFEVTEDTEKLITAIYADYARSLKNLGFKQGAVLFASKAGAAGKDLLNELESPKEEPIEE

biological target: T1, MKRN3 with N-terminal or C-terminal FLAG and HA tags (UniProt Q13064); assay: affinity purification with mass spectrometry; lysates of HEK293 or SH-SY5Y cells transfected with N- or C-terminally FLAG-HA-tagged MKRN3, with or without bortezomib; IP on immobilized anti-HA resin overnight at 4°C, elution with HA peptide, LC-MS/MS, hits filtered with CompPASS (HCIPs)
T1 sequence: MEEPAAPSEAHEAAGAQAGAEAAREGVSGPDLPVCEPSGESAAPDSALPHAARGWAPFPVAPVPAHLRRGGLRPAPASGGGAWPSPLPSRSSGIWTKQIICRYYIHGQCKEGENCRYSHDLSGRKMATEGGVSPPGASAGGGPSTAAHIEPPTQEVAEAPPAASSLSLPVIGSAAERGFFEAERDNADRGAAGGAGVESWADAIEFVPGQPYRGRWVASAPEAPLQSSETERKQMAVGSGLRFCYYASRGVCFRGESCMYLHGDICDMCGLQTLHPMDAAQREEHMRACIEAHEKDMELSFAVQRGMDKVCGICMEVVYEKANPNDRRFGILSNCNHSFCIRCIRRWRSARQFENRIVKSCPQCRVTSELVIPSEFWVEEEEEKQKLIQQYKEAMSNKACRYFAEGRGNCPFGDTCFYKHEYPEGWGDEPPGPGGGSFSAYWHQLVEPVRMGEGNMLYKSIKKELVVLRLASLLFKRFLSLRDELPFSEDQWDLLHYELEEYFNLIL

binding, binds:
E3 ubiquitin-protein ligase RNF114, endogenous (from UniProt Q9Y508 1-228)
IGF2BP2, endogenous (from UniProt Q9Y6M1 1-599)
IGF2BP3, endogenous (from UniProt O00425 1-579)
KISS1R, endogenous (from UniProt Q969F8 1-398) (receptor)
PABPC1, endogenous (from UniProt P11940 1-636)

biological target: T1, MKRN3 with N-terminal or C-terminal FLAG and HA tags; assay: as above; remark: another data set of the same source

binding, binds:
B1

Results are given in words; binding and its absence hold for the method and conditions named. In cells and extracts the contact can be indirect. These calls come from enrichment with a bait or labelling near it, and not all partners need be listed. Sequences can lack the tags named with a protein.
